Data: patent publication US20240016901A1, “COMPOSITIONS AND METHODS FOR PREVENTING AND TREATING SARS-COV-2 INFECTION” (priority 2020, published 2024)

Test system: Huh-7 cells
Experiment: Cell toxicity / cell viability in the Huh-7 imaging assay

CCCCc1oc2ccccc2c1C(=O)c1cc(I)c(OCCN(CC)CC)c(I)c1 [Amiodarone]
cell toxicity: limited cell toxicity
